Source: article PMC2770995
Where a chain is given by its changes, count along the chain named. Results are given in words; binding and its absence hold for the method and conditions named. In cells and extracts the contact can be indirect. Some results given as binding are weak or reduced against the parent protein; the word gives no strength. Where a sequence is shown, tags or fusion partners need not be part of it.

Columns and labels:
[1] = target: T1, BIO-tagged Sbh1p trans-membrane domain (BIO-SBH1(50-75)) (S. cerevisiae); test: pull-down; BIO-Sbh1p full length or tm-domain pulled down with streptavidin-conjugated magnetic beads from lysates of sbh1Δ RTN1-3XHA RTN2-9xmyc (H3723) or sbh1Δ RTN1-3XHA YOP1-9xmyc (H3722) cells; Western blot with HRP-streptavidin and antibodies to Sec61p, myc and HA (Figure 4)
T1 sequence (chain, biotin on the BIO-tag (biotinylated in vivo in yeast)): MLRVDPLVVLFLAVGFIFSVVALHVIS

[2] = target: T2, BIO-tagged full length Sbh1p (BIO-SBH1(1-82)) (S. cerevisiae) (UniProt P52870); test: as above
T2 sequence (chain, biotin on the BIO-tag (biotinylated in vivo in yeast)): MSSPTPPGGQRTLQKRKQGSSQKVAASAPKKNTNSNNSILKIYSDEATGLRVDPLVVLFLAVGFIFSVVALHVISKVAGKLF

[3] = target: T1, BIO-tagged Sbh1p trans-membrane domain (BIO-SBH1(50-75)) (S. cerevisiae); test: pull-down; BIO-tagged Sbh1p versions pulled down with streptavidin-coupled magnetic beads from membrane protein-enriched lysates of sbh1Δ RTN1-3HA cells (H3429); 1 h at 4°C, 5 washes; Western blot with anti-Sec61p, anti-HA or HRP-streptavidin (Figures 2B and 3D)
[4] = target: T3, BIO-tagged full length Sbh1p double mutant (BIO-SBH1(1-82, P54S V57G)) (S. cerevisiae) (UniProt P52870); test: as above
T3 sequence (chain, biotin on the BIO-tag (biotinylated in vivo in yeast)): T2 sequence (chain, biotin on the BIO-tag (biotinylated in vivo in yeast)) with P54S, V57G

[5] = target: T2, BIO-tagged full length Sbh1p (BIO-SBH1(1-82)) (S. cerevisiae); test: as above

Measured: binding

B1: Yop1p-9myc (protein, UniProt Q12402 1-180)
chain: MSEYASSIHSQMKQFDTKYSGNRILQQLENKTNLPKSYLVAGLGFAYLLLIFINVGGVGEILSNFAGFVLPAYLSLVALKTPTSTDDTQLLTYWIVFSFLSVIEFWSKAILYLIPFYWFLKTVFLIYIALPQTGGARMIYQKIVAPLTDRYILRDVSKTEKDEIRASVNEASKATGASVH
binds: [1] | [2]

B2: Rtn2p-9myc (protein, UniProt Q12443 1-393)
chain: MNRNTTTNKNANLNNSRNANAPGEAGHQNKTGLIYWTNPSKSGASFAATLVSLLILRNVNVISVLLKIGYMVLFTSFAVELSTKVLFDKGVVSRFGMQESPDLVGVLKPHIDRELDRLPALEDRIRKLVFAHRTRNNFTIGVSLYFLHGLFAIFSMNTVLIMTTIFLYTVPLIYDRKQARIDRAIDRMKDLVIHRFHKNYNKVVEKTEPYIDKIIPPQTDEGSYSTSISNENKSSTSQRNKSGLSSSEFDNMNDTSASKSGKDSYSTSQYNRAEYPVSQNENIGTLKSGKQEIPTEKDFNNRHENFSKPDVKTYDPRTVDIEEELAAHQRELEQNLKDGDYNLVGSKEIPDPITVPAPTRHTTKPAESQSIPIKNNETLHKTTHGLKQKLQHA
binds: [1] | [2]

B3: Sec61p (protein, UniProt P32915 1-480)
chain: MSSNRVLDLFKPFESFLPEVIAPERKVPYNQKLIWTGVSLLIFLILGQIPLYGIVSSETSDPLYWLRAMLASNRGTLLELGVSPIITSSMIFQFLQGTQLLQIRPESKQDRELFQIAQKVCAIILILGQALVVVMTGNYGAPSDLGLPICLLLIFQLMFASLIVMLLDELLSKGYGLGSGISLFTATNIAEQIFWRAFAPTTVNSGRGKEFEGAVIAFFHLLAVRKDKKRALVEAFYRTNLPNMFQVLMTVAIFLFVLYLQGFRYELPIRSTKVRGQIGIYPIKLFYTSNTPIMLQSALTSNIFLISQILFQKYPTNPLIRLIGVWGIRPGTQGPQMALSGLAYYIQPLMSLSEALLDPIKTIVYITFVLGSCAVFSKTWIEISGTSPRDIAKQFKDQGMVINGKRETSIYRELKKIIPTAAAFGGATIGALSVGSDLLGTLGSGASILMATTTIYGYYEAAAKEGGFTKNLVPGFSDLM
binds: [1] | [2] | [3] | [4] | [5]
